# Test results reported in patent US9073976B2, “ND2 peptides and methods of treating neurological disease” (NoNO Inc., priority 2010, dated 2015).
# Protein sequences, listed by entry. Tags and fused reporters are not part of them. Lines headed by an entry give the natural chain unless they say otherwise; changes in a name come on top.
# UniProt P11662: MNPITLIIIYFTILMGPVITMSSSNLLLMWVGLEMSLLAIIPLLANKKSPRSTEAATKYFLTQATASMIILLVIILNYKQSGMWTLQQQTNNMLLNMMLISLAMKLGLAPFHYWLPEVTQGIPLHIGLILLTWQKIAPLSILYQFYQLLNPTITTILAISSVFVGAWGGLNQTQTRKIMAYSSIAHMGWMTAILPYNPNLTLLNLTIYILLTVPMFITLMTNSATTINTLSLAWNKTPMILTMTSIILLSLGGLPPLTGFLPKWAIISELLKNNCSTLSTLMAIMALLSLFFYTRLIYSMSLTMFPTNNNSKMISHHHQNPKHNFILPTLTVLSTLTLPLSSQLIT
# UniProt P03891: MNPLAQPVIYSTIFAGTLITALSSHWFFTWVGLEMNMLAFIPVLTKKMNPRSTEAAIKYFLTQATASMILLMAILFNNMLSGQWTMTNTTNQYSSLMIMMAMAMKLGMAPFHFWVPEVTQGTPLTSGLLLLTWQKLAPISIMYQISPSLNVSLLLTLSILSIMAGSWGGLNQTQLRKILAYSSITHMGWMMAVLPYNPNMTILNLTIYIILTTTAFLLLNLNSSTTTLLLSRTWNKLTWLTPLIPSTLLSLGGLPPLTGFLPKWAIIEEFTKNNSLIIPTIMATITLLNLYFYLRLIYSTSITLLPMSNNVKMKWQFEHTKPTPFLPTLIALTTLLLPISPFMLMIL
# “Also recorded” adds a separate entry of the source. Not every detail of the peptide structures is certain; ends, links or a residue may be inferred. Residues, ends and D or L forms follow the SMILES beside them. No end group written: not given here. *: point of attachment. Myristoyl = CCCCCCCCCCCCCC(=O)*
# Tests used:
# rats subjected to 3PVO = experiment: Three pial vessel occlusion (3PVO) model of stroke, infarct volume; assay type: in vivo, rat; settings: for protection against damage from the stroke, second experiment (FIG. 22): given intravenously 1 hour after onset of stroke, relative to Tat-ND2
# [1] = tested on: rodents with peripheral nerve injury (PNI); experiment: Peripheral nerve injury model, myr-ND2 injected into lumbar spinal cord; assay type: in vivo, rats or mice; settings: 45, 90, 135 and 180 min post injection
# [2] = tested on: rats with CFA-induced inflammation in hind paws; experiment: Complete Freund's adjuvant (CFA) pain hypersensitivity model, paw withdrawal threshold; assay type: in vivo, rat; settings: intravenous
# Src 40-58 = molecular target: T1, Src 40-58 (Homo sapiens, UniProt P12931, A55V); experiment: ELISA of coated ND2 constructs with biotin-Src 40-58; assay type: binding
# T1 construct: KPASADGHRG P SAAFVPAA
# Experimental: GST-ND2, GST-ND2.1 or GST-ND2.1.4 were coated onto ELISA wells by incubating at the indicated concentration under standard conditions. Wells were blocked using 5% milk, and either biotin-Src 40-58 (FIG. 2C top) or biotin-sSrc 40-58 (bottom) were incubated at 6 uM.
# Further GST constructs were made to identify the amino acid sequences in ND2.1.4 responsible for binding to Src 40-58 (FIG. 3A). Although these sequences are minimally responsible for binding, sequences corresponding to ND2 these sequences as well as those flanking them could be used for inhibition of the Src-ND2 interaction. […] As before, interactions with all of the fragments were confirmed in an ELISA assay (FIG. 3C), and the top binders were ND2 310-321, ND2 289-309, ND2 299-318, ND2 307-321 and full length ND2. […] All fragments tested were able to bind Src40-58 more strongly than the negative control peptide sSrc 40-58.
# [3] = molecular target: T2, ND2, Src, NMDAR subunits, and PSD95 in hippocampal neurons (Rattus norvegicus, UniProt P11662+Q9WUD9); experiment: Immunocytochemistry colocalization in 14DIV hippocampal neurons; assay type: cell-based; settings: 1 uM peptide for 1 h, day 14 neurons
# T2 construct: endogenous in cells; host or cells: primary hippocampal neurons from E17/E18 Wistar rats, 14 DIV
# Experimental: A series of experiments was performed to examine the localization of ND2, Src, NMDAR subunits, and PSD95 in hippocampal neurons by immunocytochemistry in the presence of Tat, Tat-ND2 310-321, or Src 40-49-Tat. Briefly, hippocampal neurons were isolated from embryonic day #17/E18 Wistar rats, and cultured in neurobasal media containing coverslips with B27 and glutamax. Cells were then treated for 1 hr with luM peptide before fixing by standard methods. Proteins were visualized using specific antibodies and secondary antibodies coupled to fluorescent molecules. Colocalization of fluorescence was calculated by merging the images in Photoshop and calculating the % colocalized between pairs as the total colocalized fluorescence clusters divided by the total number of clusters (e.g., % colocalized ND2 with Src=(total colocalized)/(total ND2 clusters); % colocalized Src with ND2=(total colocalized)/(total Src clusters)).
# Hippocampal neurons cultured on coverslips were treated with 1 uM of Src 40-49-Tat, Tat-ND2 310-321 or Tat for 1 h at the day 14. Then neurons were incubated in 4% paraformaldehyde and 4% sucrose in phosphate-buffered saline (PBS) for 10 minutes followed by 5 minutes […] at room temperature (RT). Cells were permeabilized with 0.25% Triton X-100 in PBS for 5 minutes and by treatment with 5% donkey serum in PBS for 30 minutes at RT. The cultures were incubated with a mixture of the primary antibodies, raised in various species, in 0.25% Triton X-100 PBS for 2 hours at RT, washed, and incubated for 1 hour at RT with a mixture of species-specific secondary antibodies all raised in donkey and conjugated to either Texas Red, or FITC fluorophores (1:200 dilution in 0.25% Triton X-100 PBS). The coverslips were washed with PBS and mounted using ProLong Gold antifade reagent (Invitrogen). Images were collected using a 60× pan-fluor objective on a Nikon Eclipse TE 200 microscope. The images were analyzed with PhotoShop 7 (Adobe, San Jose, Calif.). Brightness and contrast were adjusted, sharpened using the unsharpen mask tool, and the images were merged for color colocalization.
# For quantification of the colocalization, the maximum intensities of the fluorophore channels were normalized and the background fluorescence of each channel seen in the dendrites was subtracted, the color images were merged. Two clusters in two different channels were considered colocalizing when at least 66% of the surface of one clusters in one of the two channels overlapped with a clusters in the other channel. For each combination of antibodies, three independent immunofluorescence experiments were done. Each measurement was taken from a 50-m-long dendritic segment (with an average width of 2 m). Colocalization was expressed as the percent of the total clusters analyzed.
# [4] = molecular target: T3, NMDA Receptor complex in rat brains subjected to 3PVO (Rattus norvegicus, UniProt P11662+Q9WUD9); experiment: Co-immunoprecipitation from rat brains subjected to 3PVO stroke; assay type: in vivo
# T3 construct: from tissue; host or cells: rat brain cortex (ipsilateral and contralateral hemispheres) after 3PVO ischemia
# [5] = molecular target: T4, binding of biotinylated Src40-49 to ND2 310-321 (Homo sapiens, UniProt P03891+P12931); experiment: Competition ELISA, binding of biotinylated Src40-49 to coated ND2 310-321; settings: FIG. 5D, FIG. 7
# T4 construct: 7; […]
# Experimental: Competition ELISAs were also performed. […] In a similar manner, ND2 constructs bearing amino acid sequences from the 300-321 region are able to act as inhibitors of the interaction between ND2 and Src.
# [6] = injection 1 hour post-surgery, harvest 2 hours post-surgery, IP anti-NR2B (FIG. 16B)
Molecule,"protection against damage from the stroke, second experiment (FIG. 22) (rats subjected to 3PVO)",sensitivity to pain (paw withdrawal threshold) ([1]; 10 pmol into the lumbar spinal cord),sensitivity to pain (paw withdrawal threshold) ([1]; 100 pmol into the lumbar spinal cord),"decline in infarct volume (rats subjected to 3PVO; 3 nmol/g intravenous one hour post-surgery, 24 hours after surgery, n=10)",time within which the increase in paw withdrawal threshold developed [2] [min],persistence of the increase in paw withdrawal threshold ([2]; testing period) [h],"binding of Src 40-58 compared with another ND2 construct (ELISA, FIG. 6) (Src 40-58)",association (colocalization) between ND2 and NR2B [3],colocalization between PSD95 and NR2B [3],colocalization of ND2 with PSD95 [3],colocalization of Src and ND2 [3],colocalization between NR2B and Src ([3]; FIG. 10),colocalization between PSD95 and Src ([3]; FIG. 11),"PSD95 association with NR2B in the hemisphere not subjected to stroke ([4]; contralateral hemisphere, IP anti-NR2B)","PSD95 associated with the NR2B complex [4, 6]","Src and PhosphoSrc associated with the NR2B complex [4, 6]","NR2B, phosphorylated NR2B and Src associated with PSD95 ([4]; injection 1 hour post-surgery, harvest 2 hours post-surgery, IP anti-PSD95 (FIG. 16A))","PSD95 immunoprecipitated along with the NR2B subunit ([4]; stroke hemisphere, tail vein injection after 3PVO, brains harvested one hour post-surgery, IP anti-NR2B)","amount of Src immunoprecipitated with NR2B ([4]; tail vein injection after 3PVO, brains harvested one hour post-surgery, IP anti-NR2B)",inhibition of binding of biotinylated Src40-49 to ND2 310-321 (competition ELISA) [5]
"CCCCCCCCCCCCCC(=O)N[C@@H](CC(N)=O)C(=O)N[C@H](C(=O)N[C@@H](CCCCN)C(=O)N[C@@H](CCSC)C(=O)N[C@@H](CCCCN)C(=O)N[C@@H](Cc1c[nH]c2ccccc12)C(=O)N[C@@H](CCC(N)=O)C(=O)N[C@@H](Cc1ccccc1)C(=O)N[C@@H](CCC(=O)O)C(=O)N[C@@H](Cc1c[nH]cn1)C(=O)N[C@H](C(=O)N[C@@H](CCCCN)C(=O)O)[C@@H](C)O)C(C)C [myr-ND2, myristoyl-NVKMKWQFEHTK] (Myristoyl-NVKMKWQFEHTK-OH)",effective but less effective than myr2-ND2,decreased sensitivity to pain across all time points tested; also recorded: significantly reduce pain,decreased sensitivity to pain across all time points tested; also recorded: significantly reduce pain,–,–,–,–,–,–,–,–,–,–,–,–,–,–,–,–,–
YGRKKRRQRRRNVKMKWQFEHTK [Tat-ND2 310-321],effective drugs for the treatment of stroke when administered after a stroke,–,–,approximately 40%,≤ 45,≥ 3,able to bind Src 40-58 better than GST-ND2; also recorded: more strongly than ND2 310-321,do not significantly affect,similarly disrupted,reduces the colocalization of ND2 with PSD95,able to reduce the amount of colocalization of Src and ND2,able to reduce the colocalization,able to reduce the colocalization,PSD95 appears to remain associated with NR2B,very little PSD95 is associated with the complex,less Src and PhosphoSrc,significantly reduced,far less PSD95,the amount of Src is reduced as well,can compete for the binding of Bio-Src40-49 to coated ND2 310-321 peptide; also recorded: able to compete for binding
